This note sets out measurements from patent publication US8906349B2, “Oral care composition” (priority 2009, dated 2014).

The MIC is the least concentration at which growth counts as inhibited.

In this experiment the test system is A. viscosus. Nature of the experiment: Minimum inhibitory concentration, serial dilution in 96-well plate, 24 h. The experiment is classed as cell-based. The conditions noted are these: Actinomyces viscosus, read-out: MIC (A. viscosus). The protocol: The minimum inhibitory concentration for actives was determined by incubating Actinomyces viscosus bacteria with serial dilutions of the active for 24 hours and determining the lowest concentration at which growth of this species was inhibited. Briefly, 100 μl final volume actives were serially diluted in 0.5× tryptic soy broth (TSB) across duplicate wells of a 96-well flat bottom microtiter plate. An overnight culture of bacteria was diluted to an OD610 ˜0.2 and 100 μl of this was added to each well. Plates were incubated overnight at 37° C. OD610 was read for each well and the MIC was determined as the concentration of active in the last well where bacterial growth was inhibited.

Some results are limits rather than exact numbers.

On to `CCCCCCCCCCCCCCCC[n+]1ccccc1` [CPC, cetyl pyridinium chloride], for which the MIC was below 1 µg/mL.
